According to PubChem BioAssay AID493014 (National Center for Advancing Translational Sciences (NCATS), 2011):
Some of the results follow. Shown are side measurements of this screen, not its main read-out; they come without a call. The list favours compounds with an active or inconclusive main result. The note in brackets gives the kind of curve behind each potency; many fits are weak.

Experiment: qHTS Assay to Find Inhibitors of Chronic Active B-Cell Receptor Signaling
Details: ABC-DLBCL IkBa-CBG/CBR reporter, luminescence ratio (green luciferase fused to IkBa over red control in TMD8 lymphoma cells), 4 h
Procedure, shortened: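 Doxycycline induced both beetle luciferases in TMD8 lymphoma cells; IKK-driven degradation limits the IkappaBalpha-fused green signal, while red luminescence normalises for cell number and nonspecific effects. Compounds tested up to 46 uM, 4 hrs.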

[1] = measured here: CBR red luminescence, cell number
[2] = measured here: IkBa-CBG green luminescence

Row | SMILES | AC50 [1] | AC50 [2]
1 | O=C(Cc1nc(=O)c2ccccc2s1)Nc1ccccc1 | 5.01 µM [falling, full curve] | 
2 | CCOc1ccccc1N(CC(=O)N/N=C/c1cc(Br)ccc1OC)S(C)(=O)=O | 29.1 µM [falling, single point] | 
3 | Cc1[nH]c2c(C)cccc2c1CN1CCC(CO)(Cc2ccccc2)CC1 | 6.31 µM [falling, partial curve] | 
4 | CSc1ccccc1NC(=O)CSCc1ccccc1Br | 5.62 µM [falling, single point] | 
5 | COCc1nc2oc3ccc(F)cc3c(=O)c2cc1C(=O)OC | 15.8 µM [rising, partial curve, poor fit] | 
6 | C=CCn1cc(C(=O)NCc2ccc3c(c2)OCO3)c(=O)c2cc(S(=O)(=O)N(CC)CC)ccc21 | 3.26 µM [rising, partial curve] | 
7 | CCOc1ccc(NC(=O)C2=C(C)C(=O)OC23CCC(C)CC3)cc1 (configuration not stated) | 6.51 µM [falling, single point] | 
8 | COc1cc(NC(=O)C(C)Oc2ccccc2)ccc1NC(=O)COc1ccccc1 (configuration not stated) | 10 µM [rising, partial curve] | 
9 | COc1ccccc1NS(=O)(=O)c1ccc(OC)c([N+](=O)[O-])c1 | 4.47 µM [rising, single point] | 
10 | O=C(CSCc1nc2ccccc2[nH]1)N1CCN(c2cccc(Cl)c2)CC1 | 3.55 µM [rising, single point] | 
11 | O=C(COc1cccc2cccnc12)Nc1ccccc1N1CCOCC1 | 3.16 µM [rising, full curve, poor fit] | 
12 | CCCCOc1ccc(Cl)cc1CSc1nnc(CC)n1N | 6.51 µM [falling, single point] | 
13 | CCCC(=O)Nc1nc(-c2ccc3c(c2)CCN3S(C)(=O)=O)cs1 | 4.47 µM [rising, partial curve, poor fit] | 
14 | Cc1c(C(=O)NCCSCc2ccc(Cl)cc2Cl)cccc1[N+](=O)[O-] | 35.5 µM [falling, single point] | 
15 | CCN(CCN(C)C)C(=O)c1ccc2c(c1NCCO)C(=O)c1ccccc1C2=O | 0.1 µM [rising, full curve, poor fit] | 
16 | Oc1ccc(N=Nc2n[nH]c(-c3ccc(Br)cc3)n2)cc1 | 0.0651 µM [falling, full curve] | 29.1 µM [rising, partial curve, poor fit]
17 | COc1ccc2[nH]c3c4c(ccc3c2c1)C(=O)C=CC4=O | 35.5 µM [falling, single point] | 
18 | CCCCn1c(NCc2ccc3c(c2)OCO3)nc2ccccc21 | 6.51 µM [falling, partial curve] | 
19 | OCC1CCCN(c2nc(CN3CCCCC3)nc3scc(-c4ccccc4)c23)C1 (configuration not stated) | 29.1 µM [falling, single point] | 
20 | CN(CC(=O)NCCc1ccc(F)cc1)Cc1cccc(Cl)c1 | 15.8 µM [falling, partial curve, poor fit] | 
21 | COc1cccc(NC(=S)N(CCc2c(C)[nH]c3ccccc23)Cc2cccs2)c1 | 6.51 µM [rising, partial curve, poor fit] | 

Row | SMILES | AC50 [1] | AC50 [2]
22 | COCCCn1c(SCc2cccc(OC)c2)nc2cc(OC)c(OC)cc2c1=N | 7.08 µM [falling, partial curve] | 
23 | C=CCOc1ccc(CNCCc2ccc(S(N)(=O)=O)cc2)cc1 | 35.5 µM [falling, single point] | 
24 | O=c1[nH]c2sc3c(c2c(=O)n1Cc1ccccc1)CCC3 | 6.31 µM [falling, partial curve] | 
25 | Cc1ccc(C(=O)NCC(=O)NCC(=O)OCc2ccc(Cl)cc2)cc1 | 29.1 µM [rising, partial curve, poor fit] | 
26 | Cc1ccnc(NC(=O)CCC(=O)N(CC(=O)NCCc2ccccc2)c2ccccc2F)c1 | 20 µM [falling, single point] | 
27 | Nc1nc(Nc2cccc(Cl)c2)sc1C(=O)c1ccc(F)cc1 | 5.62 µM [falling, full curve, poor fit] | 12.6 µM [rising, single point]
28 | Cc1noc(C)c1COc1ccc(C(=O)NCCc2ccccn2)cc1 | 28.2 µM [rising, single point] | 
29 | CC(C)c1ccc(NC(=S)N2CCCC(c3ccc(F)cc3)=N2)cc1 | 14.1 µM [rising, single point] | 
30 | CCCNC(=S)Nc1ccc(Br)cc1 | 3.98 µM [rising, partial curve, poor fit] | 
31 | CCOc1ccc2nc(NCCCNC(=O)c3cc(OC)c(OC)c(OC)c3)c(C#N)cc2c1 | 0.1 µM [rising, full curve, poor fit] | 
32 | O=C(NC1CCCC1)C(c1cccs1)N(Cc1ccco1)C(=O)Cn1nnc(-c2cccs2)n1 (configuration not stated) | 29.1 µM [falling, single point] | 
33 | CC(OC(=O)/C(C#N)=C/c1ccc(N(C)C)cc1)C(=O)N(C)Cc1ccccc1 (configuration not stated) | 2.82 µM [rising, single point] | 
34 | O=C(Nc1ccccc1)C1=C[C@H](C2CC2)C[C@H](OCCCCO)O1 | 3.16 µM [rising, full curve] | 
35 | COc1ccc(CCN2C(=O)CN(Cc3ccccc3)CC2=O)cc1OC | 23.1 µM [rising, partial curve, poor fit] | 
36 | CCOC(=O)c1c(C)[nH]c(C)c1S(=O)(=O)N(C)CC(=O)NCc1ccc(C)cc1 | 3.55 µM [rising, full curve] | 
37 | O=C(CSc1nnc2ccccn12)NNC(=O)c1cccc(Cl)c1 | 2.91 µM [rising, partial curve] | 
38 | O=C(O)c1cccnc1SC1CC(=O)N(c2ccc(OC(F)F)cc2)C1=O (configuration not stated) | 35.5 µM [rising, single point] | 
39 | COc1cc(OC)cc(C(=O)N[C@H](C(=O)OCC(=O)Nc2cccc(F)c2)C(C)C)c1 | 0.58 µM [rising, partial curve, poor fit] | 
40 | CC(=O)c1ccc(NC(=O)COc2ccc3c(c2)OCO3)cc1 | 15.8 µM [falling, partial curve, poor fit] | 
41 | O=[N+]([O-])C1=CC=C2C(=NC3(CCCCC3)N2O)C1=NCCO | 11.2 µM [rising, partial curve] | 
42 | CCOC(=O)C/C(C)=N\Nc1nc(-c2ccccc2)cs1 | 7.08 µM [falling, partial curve] | 

Row | SMILES | AC50 [1] | AC50 [2]
43 | O=C(Cc1ccccc1)Nc1ccnn1C1CCN(Cc2ccc(CO)o2)CC1 | 1.58 µM [rising, partial curve, poor fit] | 
44 | CC(=O)Oc1ccc(-c2cccc(C(=O)O)c2)cc1 | 16.4 µM [falling, single point] | 
45 | O=C(Nc1ncccn1)c1ccc(C(F)(F)F)cc1 | 6.51 µM [falling, partial curve] | 
46 | COc1cc2c(cc1OC)C1(Nc3c-2c(Cc2ccccc2)nn3-c2ccccc2)C(=O)Nc2ccccc21 (configuration not stated) | 7.31 µM [rising, partial curve, poor fit] | 
47 | Clc1ccc(-n2cccc2/C=N/n2cnnc2)cc1 | 0.00461 µM [rising, full curve, poor fit] | 
48 | Nc1nc(SCC(=O)c2ccc(Br)s2)n[nH]1 | 2.51 µM [rising, partial curve, poor fit] | 
49 | O=C(Nc1nc(-c2ccccc2)cs1)c1ccc(N2CCOCC2)c([N+](=O)[O-])c1 | 18.4 µM [falling, single point] | 16.4 µM [rising, single point]
50 | Cc1ccc(CSCC(=O)N(C)CC(=O)Nc2ccc(Cl)c(Cl)c2)cc1 | 18.4 µM [falling, partial curve, poor fit] | 
51 | Nc1ccc(-c2c3ccccc3nc3ccccc23)cc1 | 2.51 µM [falling, partial curve, poor fit] | 
52 | Cn1cc(CCC(=O)N2CCCC(CCC(=O)NCc3ccccc3F)C2)cn1 (configuration not stated) | 35.5 µM [rising, single point] | 
53 | Cc1ccc(Oc2ncnc(N)c2[N+](=O)[O-])cc1C | 12.6 µM [falling, single point] | 
54 | COc1ccc(-n2c(SCC(=O)NCc3ccco3)nc3c([nH]c4ccccc43)c2=O)cc1 | 13 µM [rising, partial curve, poor fit] | 
55 | c1ccc(CN2CCN(c3nc(NCc4ccco4)c4ccccc4n3)CC2)cc1 | 3.26 µM [rising, partial curve, poor fit] | 18.4 µM [rising, partial curve, poor fit]
56 | CCC(=O)Nc1ccc(C(=O)Nc2cccnc2)cc1 | 6.51 µM [falling, single point] | 
57 | CCOc1ccc2nc(NC(=O)Cn3cnc4c3c(=O)n(C)c(=O)n4C)sc2c1 | 4.47 µM [falling, full curve, poor fit] | 
58 | CC(CN(C)Cc1ccccc1)OC(=O)c1cccs1 (configuration not stated) | 13 µM [rising, partial curve, poor fit] | 
59 | CCC(C)Nc1ccc(NC(C)CC)cc1 (configuration not stated) | 10.3 µM [falling, partial curve] | 
60 | CC(Sc1nc(-c2ccccc2)cs1)C(=O)Nc1ccc(Cl)cn1 (configuration not stated) | 18.4 µM [falling, partial curve, poor fit] | 
61 | COC(=O)C1=CN(C)C=C(C(=O)OC)C1c1ccccc1Cl | 23.1 µM [falling, single point] | 
62 | O=C(NCc1ccncc1)C(=O)NCC(c1ccco1)N1CCN(c2ccccc2)CC1 (configuration not stated) | 7.94 µM [rising, partial curve, poor fit] | 
63 | COc1ccc(N=NC2=C(O)CC(C)(C)CC2=O)c(OC)c1 | 20.6 µM [rising, single point] | 

Taken from above:
Entry of Cc1ccc(Oc2ncnc(N)c2[N+](=O)[O-])cc1C under AC50 [1]: 12.6 µM [falling, single point]
Entry of COc1cc2c(cc1OC)C1(Nc3c-2c(Cc2ccccc2)nn3-c2ccccc2)C(=O)Nc2ccccc21 (configuration not stated) under AC50 [1]: 7.31 µM [rising, partial curve, poor fit]
Entry of CCC(=O)Nc1ccc(C(=O)Nc2cccnc2)cc1 under AC50 [1]: 6.51 µM [falling, single point]
Entry of CC(CN(C)Cc1ccccc1)OC(=O)c1cccs1 (configuration not stated) under AC50 [1]: 13 µM [rising, partial curve, poor fit]
Entry of CCOc1ccc2nc(NC(=O)Cn3cnc4c3c(=O)n(C)c(=O)n4C)sc2c1 under AC50 [1]: 4.47 µM [falling, full curve, poor fit]
